Values from PubChem BioAssay AID1259308 (NCATS, 2017).
The whole screen tested about 59,000 reagents; below is a part drawn at random. In the full data, about 1,510 (2.6%) are marked active. 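Calls use total luciferase alone and ignore viability, so some active siRNAs may act by altering cell number.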 Reagents against one gene are numbered here. Further read-outs or replicates are left out here.

- Purpose: 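Candidate targets for better recombinant protein yield in mammalian cells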 (primary screen)
- Cell system: human HEK293 embryonic kidney cells stably expressing firefly luciferase (HEK-CMV-Luc2-Hygro)
- Reagent: single siRNA against human genes, 0.8 pmol siRNA per well
- Duration: 72 h
- Measured: 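Reporter luminescence and viable-cell signal on separate replicate plates, given as percent of non-targeting control and median/MAD z-scores, plus per-cell luciferase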
- Scale: total luciferase, z-score and total luciferase, % of control: higher = more reporter protein produced
- Call rule: 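Active when the median/MAD z-score for overall luciferase is greater than 3; a gene was taken forward for validation with new siRNAs if at least two of its three siRNAs passed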
- Meaning of the calls: active = raised luciferase; inactive = no rise

For NSUN6 (GeneID 221078) #1, what was measured?
total luciferase, z-score: -0.718; total luciferase, % of control: 67.6; activity call: inactive

What is on record for NSUN6 (GeneID 221078) #2?
total luciferase, z-score: -0.716; total luciferase, % of control: 67.6; activity call: inactive

How did the screen score NSUN6 (GeneID 221078) #3?
total luciferase, z-score: -0.177; total luciferase, % of control: 78.4; activity call: inactive

Which result is listed for TSHZ3 (GeneID 57616) #1?
total luciferase, z-score: 0.0292; total luciferase, % of control: 82.5; activity call: inactive

With TSHZ3 (GeneID 57616) #2, how do the results read?
total luciferase, z-score: 0.495; total luciferase, % of control: 91.7; activity call: inactive

For TSHZ3 (GeneID 57616) #3, how do the results read?
total luciferase, z-score: -0.124; total luciferase, % of control: 79.4; activity call: inactive

For RBM15B (GeneID 29890) #1, what was measured?
total luciferase, z-score: -0.14; total luciferase, % of control: 79.1; activity call: inactive

With RBM15B (GeneID 29890) #2, how do the results read?
total luciferase, z-score: -1.31; total luciferase, % of control: 55.8; activity call: inactive

For RBM15B (GeneID 29890) #3, what was measured?
total luciferase, z-score: -1.94; total luciferase, % of control: 43.4; activity call: inactive

Which result is listed for TECRL (GeneID 253017) #1?
total luciferase, z-score: -1.23; total luciferase, % of control: 57.5; activity call: inactive

With TECRL (GeneID 253017) #2, what was measured?
total luciferase, z-score: -0.948; total luciferase, % of control: 63; activity call: inactive

For TECRL (GeneID 253017) #3, what was measured?
total luciferase, z-score: 1.63; total luciferase, % of control: 114; activity call: inactive
